One compound from publication PMC5951624 (Nature structural & molecular biology, 2018) can be followed below.

The chains behind the UniProt entries cited, without tags or fusion partners. Where a name states a change or a piece, a line headed by the entry shows the natural chain unless it says otherwise.
UniProt Q9XSM3: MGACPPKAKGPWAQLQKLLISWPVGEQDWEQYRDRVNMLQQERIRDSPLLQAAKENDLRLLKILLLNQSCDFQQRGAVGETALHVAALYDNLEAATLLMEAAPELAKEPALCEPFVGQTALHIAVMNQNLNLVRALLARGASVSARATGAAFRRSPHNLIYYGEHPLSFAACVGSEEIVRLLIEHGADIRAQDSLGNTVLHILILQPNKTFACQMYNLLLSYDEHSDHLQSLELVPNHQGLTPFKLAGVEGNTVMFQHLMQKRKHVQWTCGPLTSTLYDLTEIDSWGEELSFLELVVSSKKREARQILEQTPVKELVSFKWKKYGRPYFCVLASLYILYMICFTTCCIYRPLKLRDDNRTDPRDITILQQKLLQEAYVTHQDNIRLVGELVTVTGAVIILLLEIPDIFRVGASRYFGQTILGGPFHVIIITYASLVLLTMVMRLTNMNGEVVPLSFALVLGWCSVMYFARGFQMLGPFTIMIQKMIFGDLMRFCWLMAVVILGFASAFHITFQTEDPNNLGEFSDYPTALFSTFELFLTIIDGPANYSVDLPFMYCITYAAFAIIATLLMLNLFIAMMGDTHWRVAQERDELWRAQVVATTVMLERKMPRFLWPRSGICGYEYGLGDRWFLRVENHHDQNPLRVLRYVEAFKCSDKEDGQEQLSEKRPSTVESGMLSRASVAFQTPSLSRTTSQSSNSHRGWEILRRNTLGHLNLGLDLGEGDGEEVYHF

The experiment has as its target TRPV5 (transient receptor potential vanilloid 5) (Oryctolagus cuniculus, UniProt Q9XSM3). The experiment can be described thus: cell-based.

By IC50 is commonly meant the midpoint of a concentration-inhibition curve. High values mean weaker potency in that assay, low ones greater potency in that assay.

The compound `Clc1ccc(COC(Cn2ccnc2)c2ccc(Cl)cc2Cl)cc1` (stereo not shown) [ECN, econazole] gave an IC50 of 2000 nM.
